Experimental data reported in paper PMC12520528.

Protein sequences, listed by entry. Tags and fused reporters are not part of them. Residues count along the entry.
UniProt Q03405, residues 23-305: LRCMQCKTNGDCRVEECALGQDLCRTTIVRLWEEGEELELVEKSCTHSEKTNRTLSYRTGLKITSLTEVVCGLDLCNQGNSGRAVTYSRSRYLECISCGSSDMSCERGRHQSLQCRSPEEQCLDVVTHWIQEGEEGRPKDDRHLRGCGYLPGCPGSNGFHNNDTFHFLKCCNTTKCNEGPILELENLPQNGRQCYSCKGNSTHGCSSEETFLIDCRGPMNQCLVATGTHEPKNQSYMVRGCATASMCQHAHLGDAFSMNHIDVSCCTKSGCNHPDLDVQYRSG
UniProt P35579: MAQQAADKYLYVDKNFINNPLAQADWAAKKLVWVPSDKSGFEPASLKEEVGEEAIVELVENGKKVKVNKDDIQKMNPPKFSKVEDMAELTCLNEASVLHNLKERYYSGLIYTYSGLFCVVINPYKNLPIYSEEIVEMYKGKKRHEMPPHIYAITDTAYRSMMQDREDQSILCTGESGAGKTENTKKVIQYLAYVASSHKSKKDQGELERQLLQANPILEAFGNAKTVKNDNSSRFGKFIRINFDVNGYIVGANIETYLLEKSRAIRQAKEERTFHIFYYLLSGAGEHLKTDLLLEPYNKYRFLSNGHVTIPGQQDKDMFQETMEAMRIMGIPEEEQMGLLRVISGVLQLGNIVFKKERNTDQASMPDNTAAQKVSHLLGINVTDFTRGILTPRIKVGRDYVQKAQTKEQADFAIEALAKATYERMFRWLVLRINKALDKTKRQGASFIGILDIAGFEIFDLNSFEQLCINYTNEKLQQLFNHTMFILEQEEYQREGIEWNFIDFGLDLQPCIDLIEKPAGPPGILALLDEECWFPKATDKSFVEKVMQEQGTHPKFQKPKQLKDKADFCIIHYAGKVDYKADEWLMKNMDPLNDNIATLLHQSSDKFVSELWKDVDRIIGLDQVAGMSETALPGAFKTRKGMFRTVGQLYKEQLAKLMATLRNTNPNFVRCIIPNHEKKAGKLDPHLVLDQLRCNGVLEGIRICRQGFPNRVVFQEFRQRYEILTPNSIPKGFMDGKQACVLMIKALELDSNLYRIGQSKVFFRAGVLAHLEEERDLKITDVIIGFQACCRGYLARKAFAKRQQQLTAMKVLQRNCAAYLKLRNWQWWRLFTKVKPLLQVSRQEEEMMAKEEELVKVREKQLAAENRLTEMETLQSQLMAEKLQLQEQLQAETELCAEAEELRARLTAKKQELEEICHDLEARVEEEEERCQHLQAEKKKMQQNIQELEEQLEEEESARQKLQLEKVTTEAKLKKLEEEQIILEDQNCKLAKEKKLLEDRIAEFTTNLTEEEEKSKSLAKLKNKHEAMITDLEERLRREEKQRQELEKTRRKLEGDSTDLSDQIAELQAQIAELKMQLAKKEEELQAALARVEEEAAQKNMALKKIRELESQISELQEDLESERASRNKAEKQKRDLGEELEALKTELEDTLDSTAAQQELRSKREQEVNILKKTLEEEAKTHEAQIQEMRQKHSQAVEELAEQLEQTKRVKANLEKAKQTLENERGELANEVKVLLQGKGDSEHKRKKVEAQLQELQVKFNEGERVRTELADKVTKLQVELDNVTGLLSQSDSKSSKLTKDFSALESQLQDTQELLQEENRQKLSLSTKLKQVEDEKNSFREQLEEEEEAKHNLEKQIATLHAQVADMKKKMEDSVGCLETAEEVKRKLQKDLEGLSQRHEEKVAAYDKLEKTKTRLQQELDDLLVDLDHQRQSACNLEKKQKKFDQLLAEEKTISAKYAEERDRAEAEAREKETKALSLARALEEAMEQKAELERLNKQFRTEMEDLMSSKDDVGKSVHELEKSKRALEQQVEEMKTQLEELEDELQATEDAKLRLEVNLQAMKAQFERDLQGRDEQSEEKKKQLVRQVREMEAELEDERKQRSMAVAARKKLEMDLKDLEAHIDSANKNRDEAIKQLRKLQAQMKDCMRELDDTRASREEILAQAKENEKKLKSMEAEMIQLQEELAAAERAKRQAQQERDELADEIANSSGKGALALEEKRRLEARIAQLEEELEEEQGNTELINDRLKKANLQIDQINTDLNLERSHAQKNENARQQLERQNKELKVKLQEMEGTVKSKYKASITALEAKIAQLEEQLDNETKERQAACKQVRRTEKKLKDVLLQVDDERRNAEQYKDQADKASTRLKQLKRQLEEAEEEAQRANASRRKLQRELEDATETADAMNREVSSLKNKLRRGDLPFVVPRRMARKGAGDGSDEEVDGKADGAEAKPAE

Molecular target: urokinase-type plasminogen activator receptor (PLAUR), endogenous in neutrophils (UniProt Q03405)
Assay: affinity purification with mass spectrometry; mass spectrometry analysis of neutrophils for PLAUR-interacting proteins; details not told in the main text

myosin heavy chain 9 (MYH9) (from UniProt P35579 1-1960)
binding: binds

No constants are given. Whether binding was seen depends on the method and setting. In cells and extracts the contact can be indirect. These calls come from enrichment with a bait or labelling near it, and not all partners need be listed.
